# These are yes or no findings as the source states them, for the method shown. In cells and extracts the contact can be indirect. Some binding calls cover weakened binding; strength is not graded here.
# Sequences of proteins named here, by UniProt entry; tags and fusion partners are left off.
# UniProt Q9WVA3: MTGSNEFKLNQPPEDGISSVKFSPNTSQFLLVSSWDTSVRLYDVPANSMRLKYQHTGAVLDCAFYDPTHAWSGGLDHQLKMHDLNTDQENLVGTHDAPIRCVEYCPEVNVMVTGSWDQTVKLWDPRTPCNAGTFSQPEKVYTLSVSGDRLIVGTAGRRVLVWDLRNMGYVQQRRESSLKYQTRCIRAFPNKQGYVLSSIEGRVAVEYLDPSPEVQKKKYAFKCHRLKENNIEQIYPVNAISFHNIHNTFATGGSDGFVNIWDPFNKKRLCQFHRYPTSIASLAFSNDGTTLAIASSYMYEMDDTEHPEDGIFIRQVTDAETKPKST
# UniProt Q9JMD0: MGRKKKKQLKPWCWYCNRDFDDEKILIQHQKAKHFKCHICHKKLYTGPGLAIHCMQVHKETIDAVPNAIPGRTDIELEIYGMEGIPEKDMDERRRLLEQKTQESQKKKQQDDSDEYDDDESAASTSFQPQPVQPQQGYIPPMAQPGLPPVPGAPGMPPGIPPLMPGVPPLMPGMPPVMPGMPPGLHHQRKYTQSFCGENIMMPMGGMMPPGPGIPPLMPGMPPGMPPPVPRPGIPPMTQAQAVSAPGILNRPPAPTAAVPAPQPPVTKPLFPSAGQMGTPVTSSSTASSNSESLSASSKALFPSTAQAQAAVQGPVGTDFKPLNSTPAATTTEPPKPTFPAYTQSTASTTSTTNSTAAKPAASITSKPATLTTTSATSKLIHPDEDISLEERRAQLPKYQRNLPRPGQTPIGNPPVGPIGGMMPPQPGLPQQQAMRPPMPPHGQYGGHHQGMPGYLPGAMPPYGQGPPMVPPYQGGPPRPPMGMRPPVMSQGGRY
# Biological target: Bub3 (mouse (endogenous in mouse oocytes)) (UniProt Q9WVA3)
# Assay: co-IP; mouse oocyte lysates incubated with anti-Bub3 antibody or IgG, then protein G beads; ProFound Mammalian Co-Immunoprecipitation Kit; eluates blotted with anti-Zfp207 and anti-Bub3
substance,measurement,value
Zfp207 (from UniProt Q9JMD0 1-495),binding,binds

# Reference: article PMC5058671
